The source of these data is PubChem BioAssay AID2685 (National Center for Advancing Translational Sciences (NCATS), 2010).

This test can be described thus: qHTS Assay for Lipid Storage Modulators in Drosophila S3 Cells.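 For cell number change: cells counted by Cell Tracker Red CMTPX staining in the red channel.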 The settings on record: BODIPY lipid droplet fluorescence, 18-24 h; for cell number change: measured here: cell count max response, cells fed with added oleic acid. A digest of the protocol:
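Drosophila S3 cells loaded with oleic acid (400 uM, as added) and compounds at several concentrations; lipid droplets imaged by 488-nm laser-scanning cytometry, 500–530 nm intensity and object ratio to cell channel. Percent activity normalized to 20 uM Triacsin C.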

The mark [1] stands for this setting: measured here: cell number channel AC50, cells fed with added oleic acid.
[2] abbreviates: measured here: lipid fluorescence (Fed channel) AC50, cells fed with added oleic acid.

Some of the results follow. The main result of the screen is listed elsewhere. These columns were measured beside it and carry no call. Most of these compounds were active or inconclusive in the main read-out, so they are no random draw. Potencies come from curve fits of mixed quality, noted in brackets.

With `CCN1/C(=C/c2ccc3ccc(C)cc3[n+]2CC)Sc2ccccc21`, the cell number change was -43.6%. Besides, the AC50 under setting [1] was 29.1 µM [falling, single point]. The AC50 under setting [2] was 3.26 µM [falling, partial curve].

As for `O=C(CCCO)CCCCCCCCC[C@H]1N[C@H](CO)[C@@H](O)[C@@H]1O`, the cell number change is -20%. Under setting [2], the AC50 was 0.82 µM [falling, full curve].

Regarding `CCc1nc(C)cn1S(=O)(=O)c1cc(Br)ccc1OC`, the cell number change was -56.6%. Further, the AC50 under setting [1] is 18.4 µM [falling, partial curve]. Further, under setting [2], the AC50 is 20.6 µM [falling, partial curve].

In the case of `Cc1sc2ncn(CC(=O)NCCCC(=O)N3CCN(c4ccccc4F)CC3)c(=O)c2c1C`, the cell number change worked out at 13.8%.

As for `Cc1ccc(/C=N/NC(=O)C[n+]2ccccc2)o1`, the cell number change is -45.8%. Further, the AC50 under setting [2] was 0.116 µM [falling, full curve, poor fit].

On to `COc1ccccc1NC(=O)c1ccc2c(c1)C(=O)N(Cc1ccco1)C2=O`, for which the cell number change is 29.5%. For the same molecule, under setting [1], the AC50 is 0.461 µM [rising, full curve, poor fit].

Consider `CCOC(=O)c1c(C)nn(-c2ccc(NC(=O)c3cccs3)cc2)c1C`, for which the cell number change is -36.2%. In addition, the AC50 under setting [1] was 1.64 µM [falling, partial curve]. In addition, the AC50 under setting [2] was 1.64 µM [falling, full curve].

Consider `O=C1Cn2c(nc3ccccc32)N1c1ccccc1F`, for which the cell number change is -17.3%. The AC50 under setting [2] is 0.82 µM [falling, full curve].

Consider `Cc1cc(-n2c(=O)c(C#N)cc3c(=O)n4cccc(C)c4nc32)no1`, for which the cell number change worked out at 14.3%. In addition, under setting [2], the AC50 was 3.26 µM [rising, partial curve].

Turning to `Cc1ccc([N+](=O)[O-])cc1NC(=O)c1ccc2c(c1)OCO2`, the cell number change was -0.857%.

In the case of `COc1ccc(-n2c(SCC(=O)Nc3ccc(C)cc3)nc(O)c(Cc3ccccc3)c2=O)cc1`, the cell number change was -13%.

As for `Cc1cccc(NC(=O)C2CCN(c3nccc(C)n3)CC2)c1`, the cell number change is -10.8%. The AC50 under setting [2] was 0.116 µM [rising, full curve, poor fit].

In the case of `N/C(Cc1cccs1)=N\OC(=O)COc1ccccc1`, the cell number change amounted to 1.3%. The AC50 under setting [2] is 5.17 µM [rising, full curve, poor fit].

On to `CCc1cc(C(=O)Cc2cnn(-c3ccccc3)c2)c(O)cc1O`, for which the cell number change was -67.9%. Under setting [1], the AC50 was 20.6 µM [falling, partial curve]. Further, under setting [2], the AC50 was 8.2 µM [falling, partial curve, poor fit].

For `COc1ccc(/C(C)=N/NC(=O)c2nnn(-c3nonc3N)c2CN(C)c2ccccc2)cc1`, the cell number change was 28.6%. Moreover, the AC50 under setting [2] was 0.058 µM [rising, full curve, poor fit].

As for `O=C(NC1CCCCC1)C1CCC(=O)N(Cc2cccc(C(F)(F)F)c2)C1` (stereo not given), the cell number change is 37.1%. The AC50 under setting [2] is 6.31 µM [rising, single point].

As for `C/C(=N/NC(=O)CSc1ccccn1)c1ccc([N+](=O)[O-])cc1`, the AC50 by setting is: under setting [1], 1.3 µM [rising, partial curve]; under setting [2], 0.13 µM [rising, partial curve, poor fit].

In the case of `CC(C)(C)C(=O)N1CCN(c2ccc(NC(=O)c3ccc4c(c3)OCCO4)cc2)CC1`, the AC50 under setting [2] is 6.51 µM [falling, single point].

As to `CCN(CC)S(=O)(=O)c1ccc(OC)c(NC(=O)CCS(=O)(=O)Cc2ccccc2)c1`, the cell number change worked out at 14.2%. The concentration at half-maximal activity (AC50) under setting [2] is 0.461 µM [rising, full curve, poor fit].

Regarding `CCCn1c(=NC(=O)c2ccc3c(c2)OCO3)c(C#N)cc2c(=O)n3cccc(C)c3nc21`, the cell number change worked out at 19.9%. Besides, the concentration at half-maximal activity (AC50) under setting [2] is 0.103 µM [rising, full curve].

For the molecule `Cc1nc2c(C#N)cnn2c2c1CCNN2C`, the cell number change is -57.8%.

`CCOC(=O)c1sc2nc(SCC#N)n(CCCN3CCCC3=O)c(=O)c2c1C`: the AC50 reads like this: under setting [1], 5.8 µM [rising, single point]; under setting [2], 0.517 µM [rising, full curve].

Regarding `CC(C)(C)c1ccc(C2(C)NC(=O)NC2=O)cc1` (stereo not given), the cell number change amounted to 15.8%. Further, the AC50 under setting [2] was 29.1 µM [falling, single point].

On to `O=Cc1cccc(Oc2ccc([N+](=O)[O-])cc2[N+](=O)[O-])c1`, for which the cell number change was -41.7%. Further, the AC50 under setting [2] was 5.8 µM [falling, full curve].

With `CCc1nc(N2CCOCC2)c(C#N)c2c1COC(C)(C)C2`, the cell number change is -6.49%. Further, the AC50 under setting [2] was 0.731 µM [rising, full curve, poor fit].

For `CCOC(=O)c1c(NC(=O)c2ccco2)sc(C(=O)N2CCCC2)c1C`, the cell number change stood at 73.7%. Also, the AC50 under setting [1] is 1.3 µM [rising, full curve]. Under setting [2], the AC50 is 5.8 µM [rising, partial curve].

Turning to `Cc1noc(/C=C/c2cccs2)c1S(=O)(=O)N1CCC(C(=O)NCCCN2CCC(C)CC2)CC1`, the cell number change was 0.856%. The AC50 under setting [2] is 0.82 µM [rising, single point].

With `COc1cc2[nH]c(=S)nc(NCc3ccc(Cl)cc3)c2cc1OC`, under setting [2], the AC50 was 0.366 µM [falling, full curve].

As to `Cc1ccc(NC2=NC(c3ccc(F)cc3)n3c(nc(C)cc3=O)N2)cc1` (stereo not given), the cell number change was 17.4%. Under setting [2], the AC50 was 14.6 µM [rising, single point].

As to `O=C(CCCc1nc(-c2ccccc2Cl)no1)NC1CCCCC1`, the cell number change is -4.3%.

With `O=C(NCc1ccccc1)c1ccccc1C(=O)c1ncc[nH]1`, the cell number change was 24.3%. Besides, the AC50 under setting [1] was 0.259 µM [rising, full curve, poor fit].

`O=C(CCc1nnc(-c2ccccc2)o1)NCc1cc(F)ccc1F`: the cell number change stood at 4.88%. Further, under setting [2], the AC50 was 6.51 µM [falling, single point].

`O=C(O)CS/C(=C\c1ccc(F)cc1)c1nc2ccccc2s1`: the AC50 under setting [1] was 0.259 µM [falling, full curve].

`CN(c1ccccc1)S(=O)(=O)c1cccc(NC(=O)CC(C)(C)C)c1`: the cell number change was determined as 17.6%. In addition, under setting [2], the AC50 was 6.51 µM [rising, single point].

In the case of `CCOC(=O)c1c(-c2ccccc2)nnn1-c1nc(OC)nc(N2CCOCC2)n1`, the cell number change stood at 21.7%. Moreover, the AC50 under setting [2] is 3.26 µM [rising, full curve].

For the molecule `O=C(Nc1nnc(COc2ccc(Cl)cc2)s1)c1ccco1`, the cell number change came to 12.9%.

`COC(=O)NC(=S)Nc1ccc(Oc2ccc(Cl)cc2Cl)c(Cl)c1`: the cell number change is -38.9%. The AC50 under setting [1] was 25.9 µM [falling, partial curve, poor fit]. Also, under setting [2], the AC50 was 18.4 µM [falling, partial curve].

Turning to `CCCC(C(=O)NCC1CCCO1)N(Cc1ccccc1)C(=O)CNS(=O)(=O)c1ccccc1` (stereo not given), the cell number change came out at 9.46%. Also, the AC50 under setting [2] is 0.13 µM [falling, full curve, poor fit].

`Cc1cc(C)c(NC(=O)CN(C)CC(=O)N(C)CC(=O)Nc2c(Cl)cccc2Cl)c(C)c1`: the cell number change was -7.79%. Besides, under setting [2], the AC50 is 0.13 µM [falling, full curve, poor fit].

On to `CN1CCN(C(=S)NC(=O)c2ccc(Cl)cc2)CC1`, for which the AC50 under setting [2] is 6.51 µM [rising, single point].

Take `O=C(CCSc1ccccc1)Nc1ccc(S(=O)(=O)N2CCOCC2)cc1`: the cell number change was -1.78%. Besides, the AC50 under setting [2] is 3.66 µM [rising, single point].

As to `COc1cccc(NS(=O)(=O)c2csc(C(N)=O)c2)c1`, the cell number change was -9.15%. The AC50 under setting [2] was 23.1 µM [rising, single point].

Consider `CCC(=O)Nc1ccc2c(c1)N(C(C)=O)c1ccccc1CC2`, for which the cell number change was -11.5%.

With `COc1cc(OC)cc(C(=O)Nc2nc(CC(=O)NCCc3ccccc3)cs2)c1`, the cell number change is -114%. Besides, the AC50 under setting [1] is 29.1 µM [falling, single point].

`CC1CC(C)CN(C(=O)C(C)N(C)CC(=O)Nc2ccc(Cl)cc2)C1` (stereo not given): the cell number change is -30.3%. For the same molecule, the AC50 under setting [1] is 18.4 µM [falling, partial curve, poor fit]. The AC50 under setting [2] was 32.6 µM [falling, single point].

In the case of `COc1ccccc1OCCn1c(=O)oc2ccc(C)cc21`, the cell number change turned out to be 38.7%. Further, the AC50 under setting [2] was 16.4 µM [rising, partial curve, poor fit].

On to `O=C(Nc1nccs1)c1ccc(Br)o1`, for which the cell number change came to 25.2%. The concentration at half-maximal activity (AC50) under setting [2] was 25.9 µM [rising, single point].

With `O=C(COC(=O)/C=C/c1cccc(Cl)c1)Nc1ccccc1-c1ccccc1`, the cell number change was 30.7%. Further, the AC50 under setting [1] is 8.2 µM [rising, single point].

As for `CCN(CC)C(=O)C1CC(=O)N(c2ccc(F)c(Cl)c2)C1` (stereo not given), the cell number change is -6.9%. For the same molecule, the AC50 under setting [2] is 29.1 µM [rising, single point].

Turning to `Cc1c(NC(=O)CSc2nnc(-c3cccc(Cl)c3)o2)c(=O)n(-c2ccccc2)n1C`, the cell number change was 34%. Moreover, under setting [1], the AC50 is 29.1 µM [rising, single point].

Turning to `COc1ccccc1C(=O)Nc1nc2ccccc2s1`, the cell number change was -29.6%. For the same molecule, the AC50 under setting [2] was 0.0731 µM [falling, full curve, poor fit].

`CCCSc1cc(NCCOC(=O)CCC)c([N+](=O)[O-])c2nonc12`: the cell number change was -60.9%. The AC50 under setting [1] was 29.1 µM [falling, single point]. In addition, the AC50 under setting [2] was 29.1 µM [falling, single point].

On to `Cc1cc(C(=O)C(=O)NC(C)C)c(C)n1-c1ccc([N+](=O)[O-])cc1`, for which the AC50 under setting [2] was 6.51 µM [rising, partial curve].

`CCNC(=S)NC(=NCc1cccnc1)Nc1nc(C)cc(C)n1`: the cell number change is 6.42%.

As for `COc1ccc(OC)c(C(=O)CSc2nc3c(c(=O)n(C)c(=O)n3C)n2C(C)C)c1`, the cell number change is 0.351%. Also, the AC50 under setting [2] is 3.66 µM [falling, full curve, poor fit].

As to `COc1ccc(N(Cc2ccccc2)S(=O)(=O)c2cccc(C(=O)O)c2)cc1`, the cell number change was -40.2%. Moreover, the AC50 under setting [1] was 4.61 µM [falling, full curve]. In addition, the AC50 under setting [2] is 3.66 µM [falling, partial curve].

As for `CC(=O)C1=C(c2ccccc2)NC(=S)NC1c1ccc(O)c(O)c1` (stereo not given), the cell number change turned out to be 35.8%. Further, under setting [1], the half-maximal activity concentration (AC50) is 8.2 µM [rising, partial curve, poor fit].

As to `C=CCn1c(N)c(-c2nc3ccccc3n2C)sc1=S`, the cell number change is -11.1%. Further, under setting [2], the AC50 was 29.1 µM [rising, single point].

As to `COc1ccc(Nc2nnc(SC(C(=O)Nc3cc(C)ccc3C)c3ccccc3)s2)cc1` (stereo not given), the cell number change was found to be 32.9%. The AC50 under setting [1] was 0.058 µM [rising, full curve, poor fit]. Further, the AC50 under setting [2] was 0.651 µM [rising, single point].
